Experimental data reported in PubChem BioAssay AID2685 (National Center for Advancing Translational Sciences (NCATS), 2010).
Some of the results follow. Further columns of the screen follow, without active or inactive calls. Compounds called inactive in the main read-out are mostly missing here. The note in brackets gives the kind of curve behind each potency; many fits are weak.

Test: qHTS Assay for Lipid Storage Modulators in Drosophila S3 Cells;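 for cell number change: cells counted by Cell Tracker Red CMTPX staining in the red channel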
Settings: BODIPY lipid droplet fluorescence, 18-24 h; for cell number change: measured here: cell count max response, cells fed with added oleic acid
Summary of the method: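 Laser-scanning cytometry quantifies lipid droplet accumulation (500–530 nm total intensity; droplet/cell object ratio) in oleic acid-fed (400 uM added) Drosophila S3 cells treated with a concentration series. 20 uM Triacsin C defined 100% inhibition.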

[1] = measured here: cell number channel AC50, cells fed with added oleic acid
[2] = measured here: lipid fluorescence (Fed channel) AC50, cells fed with added oleic acid

SMILES	cell number change [%]	AC50 [1]	AC50 [2]
CCOC(=O)C1CCCN(C(=O)c2ccc(CS(=O)(=O)Cc3ccccc3C)o2)C1 (configuration not stated)	211	23.1 µM [rising, partial curve]	
CC(C)[C@H](NC(=O)c1cccc(S(=O)(=O)N2CCOCC2)c1)C(=O)Nc1nccs1			0.82 µM [rising, full curve]
Cc1cccc2cc(C#N)c(NCCNC(=O)NC3CCCCC3)nc12		3.66 µM [rising, partial curve, poor fit]	4.11 µM [rising, partial curve, poor fit]
CCC(=O)Nc1cc(-c2nnc(OC)c3ccccc23)ccc1N1CCOCC1	3.56		
COc1ccc(CNC(=O)COC(=O)c2cccnc2Nc2cccc(C(F)(F)F)c2)cc1	1.68		0.058 µM [rising, full curve]
Cc1ccn(C(=O)c2ccc(NC(=O)CC(C)C)cc2)n1	-30.5	18.4 µM [falling, single point]	29.1 µM [falling, single point]
COC(=O)C(C(=O)OC)c1ccc(-n2cccc2)cc1	-3.08		
COC(=O)c1cc(OC)c(OC)cc1NC(=O)Cn1nnc(-c2ccccc2Cl)n1		2.59 µM [rising, partial curve]	1.84 µM [rising, partial curve]
NS(=O)(=O)c1ccc(N/N=C/c2cn(-c3ccccc3)nc2-c2ccccc2)c([N+](=O)[O-])c1	-15.1		16.4 µM [falling, single point]
CCCNC(=O)CSc1nnc(-c2ccccc2Br)n1-c1cccc(C(F)(F)F)c1	-30.4	14.6 µM [falling, single point]	18.4 µM [falling, single point]
COc1cccc(/C=C/C(=O)OCC(=O)NC(=O)NC2CCCCC2)c1	28.1		
O=C(COC(=O)Cc1n[nH]c(=O)c2ccccc12)Nc1cccc(C(F)(F)F)c1		0.00517 µM [falling, full curve, poor fit]	
CCCn1c(C(O)c2ccc3c(c2)OCO3)nc2ccccc21 (configuration not stated)	-9.99		6.51 µM [rising, partial curve]
O=C(COC(=O)c1ccccc1Br)Nc1nnc(-c2ccccc2)o1	-9.76		0.411 µM [falling, single point]
CCn1c(SCC(=O)NC2(C#N)CCCCC2)nc2ccccc2c1=O	61.5	4.61 µM [rising, partial curve]	
Cc1cc(NC(=O)CCC(=O)N(C(C(=O)NC(C)(C)C)c2ccccc2Cl)C(C)(C)C)no1 (configuration not stated)	24.8		6.51 µM [falling, single point]
O=C(CSc1nc(-c2ccccc2)cc(=O)[nH]1)N1CCOCC1	-8.61		0.82 µM [falling, partial curve, poor fit]
Nc1nnc(/C=C/c2cccc([N+](=O)[O-])c2)s1			6.51 µM [rising, single point]
COC(=O)N/N=C/c1cn(CC(C)COc2ccccc2)c2ccccc12 (configuration not stated)	-28.6		0.00517 µM [falling, full curve, poor fit]
Cc1c(F)cccc1NS(=O)(=O)c1ccc2c(c1)n(C)c(=O)c(=O)n2C	7.98		

SMILES	cell number change [%]	AC50 [1]	AC50 [2]
CCC(C)Cn1c(O)cc2nn(-c3nc4ccccc4s3)c(=O)c-2c1C (configuration not stated)			29.1 µM [falling, single point]
CN(C(=O)CSc1nc(-c2ccc(C(C)(C)C)cc2)c(C#N)c(=O)[nH]1)C1CCCCC1	7.03		0.0164 µM [rising, full curve, poor fit]
Cc1ccc(OCc2nnc(SCc3cc(=O)[nH]c4ccccc34)o2)cc1	0.489		
CC(C(=O)Nc1ccon1)N1C(=O)c2ccccc2S1(=O)=O (configuration not stated)	-0.0956		0.291 µM [falling, full curve]
CC(=O)Oc1ccc(C(=O)c2ccccc2)c(OC(C)=O)c1	-10.4		0.00411 µM [falling, full curve, poor fit]
Cc1ccc(-n2ncc3c(NCc4cccnc4)ncnc32)cc1C	-29.6		
CC(NC(=O)C(Cc1ccccc1)n1cccc1)c1ccccc1 (configuration not stated)	16.8		0.731 µM [falling, full curve]
CCC(CO)NCc1ccc(OC2CCCC2)cc1 (configuration not stated)	-3.48		23.1 µM [falling, single point]
CC(C)NC(=O)NC(=O)COc1c(F)c(F)cc(F)c1F	-5.46		0.092 µM [falling, full curve]
O=C1CC[C@@H](O)CCN1CC[C@H](Sc1ccc(Br)cc1)c1ccccc1	-6.02		3.66 µM [rising, single point]
COc1cc2[nH]c(=O)n(CCC(=O)NCCC(C)C)c(=O)c2cc1OC	-31	29.1 µM [falling, single point]	0.92 µM [falling, full curve, poor fit]
Cc1nnc(SCCn2c(N3CCN(Cc4ccccc4)CC3)nc3c2c(=O)[nH]c(=O)n3C)s1	-0.185		
CO/N=C/c1ccc(OC)c(Oc2nc(OC)cc(OC)n2)c1	12.3	0.291 µM [rising, full curve, poor fit]	0.146 µM [rising, full curve, poor fit]
CCN1CCCC1CNC(=S)Nc1ccc(C(C)=O)cc1 (configuration not stated)	3.01		
COc1ccc(-n2c(C)c(C)c3c(NCCCN(C)C)ncnc32)cc1			0.651 µM [rising, full curve]
O=C(CCn1cncn1)N1CCCC(N2CCN(c3ccc(F)cc3)CC2)C1 (configuration not stated)	16.5		
O=C(Nc1nc2ccccc2s1)C1CCN(C(=O)c2ccco2)CC1	8.4		
O=C(NCCc1ccccc1)c1ccc(NC2=NC3CS(=O)(=O)CC3S2)cc1 (configuration not stated)	-32.5	0.082 µM [falling, partial curve, poor fit]	
Cc1ccc(NC(=O)COC(=O)CN2C(=O)c3ccccc3C2=O)cc1	-0.376		29.1 µM [falling, single point]
O=C(N1CCCCCC1)N1CCN(S(=O)(=O)N2CCOCC2)CC1	-24.9	1.84 µM [falling, full curve, poor fit]	0.0164 µM [falling, full curve, poor fit]

SMILES	cell number change [%]	AC50 [1]	AC50 [2]
Cc1cccc(-n2c(=O)c(C#N)cc3c(=O)n4ccccc4nc32)c1	22.1	0.461 µM [rising, full curve, poor fit]	
O=C(NCc1ccc(Cl)cc1)C1CCN(S(=O)(=O)c2cccs2)CC1	16.1		
Fc1cccc(CSc2ccc3nnc(-c4cccnc4)n3n2)c1	-63.3	29.1 µM [falling, single point]	29.1 µM [falling, partial curve]
O=C(c1cc2ncc(Br)cn2n1)N1CCOCC1	-100	1.03 µM [falling, full curve]	1.46 µM [falling, full curve]
Cc1ccc(C(=O)N(CN2CCCC2=O)c2ccc(F)cc2)cc1C			6.51 µM [rising, single point]
CN(c1ccc(OCC(=O)NCc2cccnc2)cc1)S(=O)(=O)c1ccc(Cl)cc1			6.51 µM [rising, single point]
Cc1ncc(CO)c(/C=N/Nc2cccc(Cl)n2)c1O	15.5	0.184 µM [rising, full curve, poor fit]	3.66 µM [rising, single point]
CCC(=NCc1ccc(Cl)c(Cl)c1)c1nc(-c2ccco2)oc1O		1.3 µM [falling, partial curve]	8.2 µM [rising, partial curve]
O=C(NCCc1ccccc1F)C(=O)Nc1nccs1	-28.5		
Cc1cc(C)n(-c2ccc(C(=O)NCCCN3CCOCC3)cc2)n1	-91.6	16.4 µM [falling, partial curve]	14.6 µM [falling, partial curve]
CCOc1ccccc1CNC(=O)CCn1ccc2cc(S(=O)(=O)N3CCCCC3)ccc21	20.6		29.1 µM [falling, single point]
CN(C)S(=O)(=O)c1ccc(N2CCCC2)c(C(=O)NC(c2ccccc2)c2ccccc2)c1	4.5	1.16 µM [rising, partial curve]	0.651 µM [rising, single point]
Cc1ccc(N(CC(=O)N2CCc3ccccc32)S(=O)(=O)c2cccs2)cc1	88.6	8.2 µM [rising, partial curve]	
Cc1cccc(NC(=O)c2cc3ccccc3oc2=O)c1	6.2	0.291 µM [rising, full curve, poor fit]	0.58 µM [rising, single point]
Cc1ccc(CNC2=NCCCCC2)n1C	-70.4	18.4 µM [falling, partial curve]	18.4 µM [falling, partial curve]
FC(F)(F)c1ccc(/C=N/NC(=S)NC2CCCCC2)cc1	-15.9		
Cc1ccc(S(=O)(=O)Cc2ccc(C(=O)NCc3ccc4c(c3)OCO4)o2)cc1		0.164 µM [rising, full curve, poor fit]	0.13 µM [rising, full curve, poor fit]
COc1ccc2c(c1)[nH]c1c(=O)n(Cc3ccco3)cnc12	107		
Cn1ncc2c(Nc3ccc(-c4ccccc4)cc3)ncnc21	22.8	0.461 µM [rising, full curve, poor fit]	0.58 µM [rising, partial curve]
Nc1[nH]c(=S)[nH]c(=O)c1-c1ccccc1	40.4	29.1 µM [rising, single point]	

Rewritten as a markdown table: part of the list above.

| SMILES | cell number change [%] | AC50 [1] | AC50 [2] |
| --- | --- | --- | --- |
| Cc1ccc(OCc2nnc(SCc3cc(=O)[nH]c4ccccc34)o2)cc1 | 0.489 |  |  |
| CC(C(=O)Nc1ccon1)N1C(=O)c2ccccc2S1(=O)=O (configuration not stated) | -0.0956 |  | 0.291 µM [falling, full curve] |
| CC(=O)Oc1ccc(C(=O)c2ccccc2)c(OC(C)=O)c1 | -10.4 |  | 0.00411 µM [falling, full curve, poor fit] |
| Cc1ccc(-n2ncc3c(NCc4cccnc4)ncnc32)cc1C | -29.6 |  |  |
